Measurements reported in the supplement of paper PMC8728848.
This is one part of the list.

Legend:
Test in all cases: glycan array binding signal (z-score within array); higher = stronger binding
Conditions in all cases: glycan notation: IUPAC condensed, linker removed
[1] = biological target: Gal(b1-4)GlcNAc(b1-2)Man(a1-3)[Gal(b1-4)GlcNAc(b1-2)Man(a1-6)]Man(b1-4)GlcNAc(b1-4)[Fuc(a1-6)]GlcNAc
Procedure, shortened: (§1)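 From the Consortium for Functional Glycomics database, 3228 arrays were curated, keeping only those whose protein sequence was available. Binding is given as a within-array Z-score averaged across arrays sharing a protein sequence and across linkers. Negative Z-scores can be read as non-binding.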

[2] = biological target: Gal(b1-4)GlcNAc(b1-2)Man(a1-3)[Gal(b1-4)GlcNAc(b1-2)Man(a1-6)][Gal(b1-4)GlcNAc(b1-4)]Man(b1-4)GlcNAc(b1-4)[Fuc(a1-6)]GlcNAc
Procedure, shortened: as §1

[3] = biological target: Gal(b1-4)GlcNAc(b1-2)Man(a1-3)[Gal(b1-4)GlcNAc(b1-2)Man(a1-6)][GlcNAc(b1-4)]Man(b1-4)GlcNAc(b1-4)[Fuc(a1-6)]GlcNAc
Procedure, shortened: as §1

[4] = biological target: Gal(b1-4)GlcNAc(b1-2)Man(a1-3)[GlcNAc(b1-2)Man(a1-6)]Man(b1-4)GlcNAc(b1-4)GlcNAc
Procedure, shortened: as §1

[5] = biological target: Gal(b1-4)GlcNAc(b1-2)Man(a1-3)[GlcNAc(b1-4)][Gal(b1-4)GlcNAc(b1-2)Man(a1-6)]Man(b1-4)GlcNAc(b1-4)GlcNAc
Procedure, shortened: as §1

[6] = biological target: Gal(b1-4)GlcNAc(b1-2)Man(a1-3)[Man(a1-6)]Man(b1-4)GlcNAc(b1-4)GlcNAc
Procedure, shortened: as §1

[7] = biological target: Gal(b1-4)GlcNAc(b1-2)Man(a1-6)Man(b1-4)GlcNAc(b1-4)GlcNAc
Procedure, shortened: as §1

[8] = biological target: Gal(b1-4)GlcNAc(b1-2)Man(a1-6)[GlcNAc(b1-2)Man(a1-3)]Man(b1-4)GlcNAc(b1-4)GlcNAc
Procedure, shortened: as §1

[9] = biological target: Gal(b1-4)GlcNAc(b1-2)Man(a1-6)[Man(a1-3)]Man(b1-4)GlcNAc(b1-4)GlcNAc
Procedure, shortened: as §1

[10] = biological target: Gal(b1-4)GlcNAc(b1-2)[Gal(b1-4)GlcNAc(b1-4)]Man(a1-3)[Gal(b1-4)GlcNAc(b1-2)Man(a1-6)]Man(b1-4)GlcNAc(b1-4)GlcNAc
Procedure, shortened: as §1

[11] = biological target: Gal(b1-4)GlcNAc(b1-2)[Gal(b1-4)GlcNAc(b1-4)]Man(a1-3)[Gal(b1-4)GlcNAc(b1-2)[Gal(b1-4)GlcNAc(b1-6)]Man(a1-6)]Man(b1-4)GlcNAc(b1-4)GlcNAc
Procedure, shortened: as §1

[12] = biological target: Gal(b1-4)GlcNAc(b1-2)[Gal(b1-4)GlcNAc(b1-4)]Man(a1-3)[GlcNAc(b1-4)][Gal(b1-4)GlcNAc(b1-2)Man(a1-6)]Man(b1-4)GlcNAc(b1-4)GlcNAc
Procedure, shortened: as §1

[13] = biological target: Gal(b1-4)GlcNAc(b1-2)[Gal(b1-4)GlcNAc(b1-4)]Man(a1-3)[GlcNAc(b1-4)][Gal(b1-4)GlcNAc(b1-2)[Gal(b1-4)GlcNAc(b1-6)]Man(a1-6)]Man(b1-4)GlcNAc(b1-4)GlcNAc
Procedure, shortened: as §1

[14] = biological target: Gal(b1-4)GlcNAc(b1-2)[Gal(b1-4)GlcNAc(b1-6)]Man(a1-6)[Gal(b1-4)GlcNAc(b1-2)Man(a1-3)]Man(b1-4)GlcNAc(b1-4)GlcNAc
Procedure, shortened: as §1

[15] = biological target: Gal(b1-4)GlcNAc(b1-2)[Gal(b1-4)GlcNAc(b1-6)]Man(a1-6)[Gal(b1-4)GlcNAc(b1-2)Man(a1-3)]Man(b1-4)GlcNAc(b1-4)[Fuc(a1-6)]GlcNAc
Procedure, shortened: as §1

[16] = biological target: Gal(b1-4)GlcNAc(b1-2)[Gal(b1-4)GlcNAc(b1-6)]Man(a1-6)[GlcNAc(b1-4)][Gal(b1-4)GlcNAc(b1-2)Man(a1-3)]Man(b1-4)GlcNAc(b1-4)GlcNAc
Procedure, shortened: as §1

[17] = biological target: Gal(b1-4)GlcNAc(b1-2)[Gal(b1-4)GlcNAc(b1-6)]Man(a1-6)[GlcNAc(b1-4)][Gal(b1-4)GlcNAc(b1-2)[Gal(b1-4)GlcNAc(b1-4)]Man(a1-3)]Man(b1-4)GlcNAc(b1-4)[Fuc(a1-6)]GlcNAc
Procedure, shortened: as §1

[18] = biological target: Gal(b1-4)GlcNAc(b1-3)Gal(b1-3)GalNAc
Procedure, shortened: as §1

[19] = biological target: Gal(b1-4)GlcNAc(b1-3)Gal(b1-3)GlcNAc
Procedure, shortened: as §1

B1: PX9961KLbvu-535-38-535 (Bacteroides vulgatus) (protein)
chain: DKAYTDAESYTKGLHKIYSVWALSGQDGSSSSDISGLDAGNTALLRCWWTLQEQPTDEMKNAWNDAWCTEVNYMTWTTNKVEPIEGVYQRCMYIVALVNEFLKNIPNAPESIDKESYIAQARFNRAFAYYVLMDMFALPPFITEKNYSIEPAPLSREDLFNWIEAELNEIKPNLPSPRSEYGVADQAVASALLARMYLNAEIYTGKARYTECINACNEVIKAGYQLADNYADLFKADNGENPDTKKEIIYPIIFDGDKTQSWGMAAIIIGARGAEDKDVLLAHSGVDQGWAGFRATSNLVHLFDFQNDEEPKASEIQDKRGIFYDKGRSIDITSSVSGTFETEGWSVFKFSNLNSNGQPGKNTLWVDTDFPMFRLGDIYLMYAEAVARGGEGSKASAVEYINALRKRAYGDDKHNISENWLEENNFRNLLDERGRELYWEGIRRTDLVRFDLLTSGSYTWDFKGGINTGVGVNKRYNVYPIPVTDLTVNGNLQQNEGY
Q: What does the source list for B1?
A: glycan array binding signal (z-score) [1]: 0.983; glycan array binding signal (z-score) [2]: -0.524; glycan array binding signal (z-score) [3]: -0.8; glycan array binding signal (z-score) [4]: -0.039; glycan array binding signal (z-score) [5]: -0.249; glycan array binding signal (z-score) [6]: -0.443; glycan array binding signal (z-score) [7]: -0.754; glycan array binding signal (z-score) [8]: -0.169; glycan array binding signal (z-score) [9]: -0.969; glycan array binding signal (z-score) [10]: 0.311; glycan array binding signal (z-score) [11]: 0.439; glycan array binding signal (z-score) [12]: -0.182; glycan array binding signal (z-score) [13]: 0.311; glycan array binding signal (z-score) [14]: -0.741; glycan array binding signal (z-score) [15]: -0.37; glycan array binding signal (z-score) [16]: -0.236; glycan array binding signal (z-score) [17]: 0.616; glycan array binding signal (z-score) [18]: -0.459; glycan array binding signal (z-score) [19]: -0.533
